Assay results reported in article PMC4416881, “Regulation of Active DNA Demethylation by a Methyl-CpG-Binding Domain Protein in Arabidopsis thaliana” (PLoS Genetics, 2015).
Results are given in words; binding and its absence hold for the method and conditions named. In cells and extracts the contact can be indirect. Here binding means that the protein was enriched with, or labelled near, the bait; the list need not be complete. Tags and fused reporters may be left off the sequences shown. Blank lines part the entries; values can stand above or below the binder they belong to.

Assays:
[1] = biological target: T1, 6Myc-IDL1 (Arabidopsis thaliana) (UniProt Q9SYQ0); test: affinity purification with mass spectrometry; 6Myc-IDL1 purified from Arabidopsis flower extract on anti-c-Myc agarose, eluted with 0.1 M ammonium hydroxide; lysis buffer 50 mM Tris pH 8.0, 230 mM NaCl, 0.2% NP-40; 4°C; LC-MS/MS
T1 sequence: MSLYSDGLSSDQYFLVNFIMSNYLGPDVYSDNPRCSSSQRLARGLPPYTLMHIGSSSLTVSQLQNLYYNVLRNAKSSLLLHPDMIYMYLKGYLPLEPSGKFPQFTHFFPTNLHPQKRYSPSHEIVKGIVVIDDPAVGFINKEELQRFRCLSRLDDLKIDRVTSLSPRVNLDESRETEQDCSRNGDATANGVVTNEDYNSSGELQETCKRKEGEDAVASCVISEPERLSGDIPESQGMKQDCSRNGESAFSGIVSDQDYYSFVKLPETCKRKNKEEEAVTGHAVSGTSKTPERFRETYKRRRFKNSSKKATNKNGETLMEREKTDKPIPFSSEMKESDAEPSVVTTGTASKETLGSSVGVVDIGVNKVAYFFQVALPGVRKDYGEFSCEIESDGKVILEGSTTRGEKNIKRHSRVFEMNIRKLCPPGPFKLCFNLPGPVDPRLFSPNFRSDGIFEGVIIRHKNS

[2] = biological target: T2, IDM1-3HA-YFP (Arabidopsis thaliana) (UniProt F4IXE7); test: affinity purification with mass spectrometry; IDM1-3HA-YFP purified from Arabidopsis flower extract on anti-HA agarose, eluted with HA peptide; lysis buffer 50 mM Tris pH 8.0, 230 mM NaCl, 0.2% NP-40; 4°C; LC-MS/MS
T2 sequence: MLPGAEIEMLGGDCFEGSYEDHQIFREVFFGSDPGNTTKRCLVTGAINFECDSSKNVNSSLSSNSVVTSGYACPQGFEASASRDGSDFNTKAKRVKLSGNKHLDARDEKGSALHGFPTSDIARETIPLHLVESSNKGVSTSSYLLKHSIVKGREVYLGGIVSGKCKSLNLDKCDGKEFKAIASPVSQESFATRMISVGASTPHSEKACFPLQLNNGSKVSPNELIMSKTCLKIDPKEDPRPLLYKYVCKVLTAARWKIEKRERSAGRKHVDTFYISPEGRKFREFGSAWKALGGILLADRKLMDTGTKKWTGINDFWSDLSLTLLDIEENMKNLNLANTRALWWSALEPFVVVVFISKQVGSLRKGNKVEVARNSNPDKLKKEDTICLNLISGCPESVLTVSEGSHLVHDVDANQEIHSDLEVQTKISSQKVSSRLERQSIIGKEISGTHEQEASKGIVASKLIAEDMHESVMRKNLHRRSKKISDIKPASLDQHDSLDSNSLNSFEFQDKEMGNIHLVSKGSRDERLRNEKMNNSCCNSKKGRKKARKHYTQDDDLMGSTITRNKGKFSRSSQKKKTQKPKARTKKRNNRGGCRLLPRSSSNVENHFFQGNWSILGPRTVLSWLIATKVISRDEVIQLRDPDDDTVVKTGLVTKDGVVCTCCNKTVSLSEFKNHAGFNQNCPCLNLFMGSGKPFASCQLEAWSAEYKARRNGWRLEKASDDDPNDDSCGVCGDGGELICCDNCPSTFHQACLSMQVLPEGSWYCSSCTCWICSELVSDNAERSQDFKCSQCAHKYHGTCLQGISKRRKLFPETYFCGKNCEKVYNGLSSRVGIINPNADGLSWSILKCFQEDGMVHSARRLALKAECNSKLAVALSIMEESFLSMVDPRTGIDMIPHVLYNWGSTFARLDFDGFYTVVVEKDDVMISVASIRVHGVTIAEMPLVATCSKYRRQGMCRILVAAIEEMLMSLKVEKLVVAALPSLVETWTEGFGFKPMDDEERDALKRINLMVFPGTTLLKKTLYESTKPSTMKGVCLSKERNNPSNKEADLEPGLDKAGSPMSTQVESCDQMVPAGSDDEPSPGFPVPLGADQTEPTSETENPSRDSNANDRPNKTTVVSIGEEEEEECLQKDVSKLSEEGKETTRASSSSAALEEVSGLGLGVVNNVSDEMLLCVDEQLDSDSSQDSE

[3] = biological target: T3, 6Myc-IDM2 (Arabidopsis thaliana) (UniProt Q8RWL4); test: affinity purification with mass spectrometry; 6Myc-IDM2 purified from flower extract of transgenic Arabidopsis (idm2-1 background); the methods name IDM2-GFP plants and GFP-Trap A beads; lysis buffer 50 mM Tris pH 8.0, 230 mM NaCl, 0.2% NP-40; 4°C; LC-MS/MS
T3 sequence: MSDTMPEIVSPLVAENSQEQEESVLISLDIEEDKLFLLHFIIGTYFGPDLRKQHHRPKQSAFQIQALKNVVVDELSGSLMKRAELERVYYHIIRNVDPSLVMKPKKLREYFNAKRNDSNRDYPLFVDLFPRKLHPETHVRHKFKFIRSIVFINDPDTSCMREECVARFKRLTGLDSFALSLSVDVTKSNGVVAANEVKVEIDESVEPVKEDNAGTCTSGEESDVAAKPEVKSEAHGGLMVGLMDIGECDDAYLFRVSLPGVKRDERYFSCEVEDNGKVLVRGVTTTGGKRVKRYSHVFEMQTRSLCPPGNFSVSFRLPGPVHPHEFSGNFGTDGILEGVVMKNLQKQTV

binding [1]: binds
binding [2]: binds
B1: MBD6 (endogenous) (protein, UniProt Q9LTJ1 1-225)
chain: MSDSVAGDFPPDPLLASGAFISSAGDGTLDSSAKRRPIQGGIGISGSGESVRIGMANGTDQVNHQTESKSRKRAAPGDNWLPPGWRVEDKIRTSGATAGSVDKYYYEPNTGRKFRSRTEVLYYLEHGTSKRGTKKAENTYFNPDHFEGQGSNRVTRTATVPPPPPPPLDFDFKNPPDKVSWSMANAGEEGWIPNIGDVKVQDSVRRDWSTAFTFITSRNPSKVSA

binding [1]: binds
binding [2]: binds
B2: IDM2 (endogenous) (protein, UniProt Q8RWL4 1-349)
chain: T3 sequence

binding [3]: binds
binding [2]: binds
B3: IDL1 (endogenous) (protein, UniProt Q9SYQ0 1-463)
chain: T1 sequence

binding [3]: binds
binding [1]: binds
B4: IDM1 (endogenous) (protein, UniProt F4IXE7 1-1189)
chain: T2 sequence

binding [3]: binds
binding [1]: binds
B5: His-MBD7 (natural protein, Arabidopsis thaliana, UniProt Q9FJF4 1-306, looked up)
chain: MQTRSSSSPSANHRRETQLQIADPTSFCGKIMPGWTVVNRPRSSNNGVVDTYFIEPGTGRQFSSLEAIHRHLAGEVNDRRLTRAGSFFQDKTRVYEGSRTKQDHCGVEYASKGFRLPRGWSVEEVPRKNSHYIDKYYVERKTGKRFRSLVSVERYLRESRNSIEQQLRVLQNRRGHSKDFRLPDGWIVEEKPRRSSSHIDRSYIEPGTGNKFRSMAAVERYLISVGNITLDSVSMVHSERLPLLMNRNGIRFQSEVIDPNPPKKVKWVLTGSGGNMFTANVRGSNVSSLVKHTWSEAFVSLIEDRS
notes: MBD7, Arabidopsis thaliana, AT5G59800; detected with antibodies against the His6 tag; also called His-tagged MBD7; source: E. coli, purified; not shown: His6, N-terminal, kept
